From BindingDB's records for doi:10.1021/acs.jmedchem.1c00439 (University of Tennessee Health Science Center, 2021)
pKi: −log10 of the molar value.

Molecular target: T1, Androgen receptor (Rattus norvegicus, UniProt P15207)
T1 sequence (P15207 whole entry): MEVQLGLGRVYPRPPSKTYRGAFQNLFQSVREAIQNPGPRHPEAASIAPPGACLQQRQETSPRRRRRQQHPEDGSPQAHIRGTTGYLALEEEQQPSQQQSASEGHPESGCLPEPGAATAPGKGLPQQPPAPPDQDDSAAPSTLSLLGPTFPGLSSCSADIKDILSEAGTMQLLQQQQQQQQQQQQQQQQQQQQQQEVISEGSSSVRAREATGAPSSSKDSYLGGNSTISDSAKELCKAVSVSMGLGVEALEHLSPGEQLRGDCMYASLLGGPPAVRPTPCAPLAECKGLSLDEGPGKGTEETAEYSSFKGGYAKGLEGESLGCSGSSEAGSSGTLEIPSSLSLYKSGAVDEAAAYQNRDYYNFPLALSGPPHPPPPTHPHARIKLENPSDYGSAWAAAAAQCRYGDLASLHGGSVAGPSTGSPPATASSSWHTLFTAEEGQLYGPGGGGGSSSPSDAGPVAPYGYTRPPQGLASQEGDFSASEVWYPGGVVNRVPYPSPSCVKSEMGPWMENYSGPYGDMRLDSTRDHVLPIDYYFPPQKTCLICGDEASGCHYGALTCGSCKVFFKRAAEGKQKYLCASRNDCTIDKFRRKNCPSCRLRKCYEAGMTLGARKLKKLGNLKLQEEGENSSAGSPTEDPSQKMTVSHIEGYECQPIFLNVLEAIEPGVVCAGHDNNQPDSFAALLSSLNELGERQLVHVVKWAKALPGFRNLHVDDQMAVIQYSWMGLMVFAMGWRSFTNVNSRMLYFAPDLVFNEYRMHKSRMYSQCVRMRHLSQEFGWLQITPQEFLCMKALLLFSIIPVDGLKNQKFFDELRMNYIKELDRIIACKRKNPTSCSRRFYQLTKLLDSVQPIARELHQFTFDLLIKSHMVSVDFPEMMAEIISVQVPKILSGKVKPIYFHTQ

SMILES: C[C@](O)(CCc1ccc(Br)cc1)C(=O)Nc1ccc(C#N)c(C(F)(F)F)c1
- pKi: 6.60

SMILES: C[C@](O)(CCc1ccc(C#N)cc1)C(=O)Nc1ccc(C#N)c(C(F)(F)F)c1
- pKi: 6.05
